{"source": "PubChem BioAssay AID1508597 (Cure First, 2020)", "purpose": "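Genes whose silencing sensitises or protects ovarian cancer cells against rucaparib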 (primary screen)", "cell system": "human ovarian carcinoma lines grown from tumours: OCI-P5x (papillary serous) and OCI-C5x (clear cell)", "reagents": "siRNA pool against human genes, 1.25 pmol siRNA per well", "timing": "72 h or 96 h, depending on the cell culture", "challenge": "rucaparib 20 µM (about IC30) or vehicle, present until read-out", "measured": "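Luminescent ATP-based viability assay read 72 or 96 h after transfection, depending on culture, given as normalised percent viability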", "reading the numbers": "viability, normalised: higher = more viable cells remaining", "rule for the call": "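a well counts as a hit if its normalised viability is under 80 percent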", "calls": "active = viability under 80%; inactive = viability 80% or more", "note": "This is an unselected part of about 2,100 reagents. 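Calls flag viability under 80% in either arm, not effects specific to rucaparib; the reference for percent is not stated.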 Entries without a mark were called inactive. The record does not give: the 100% reference."}
{"target gene": "PLK2", "PubChem SID": "SID405527691", "rucaparib or vehicle": "Rucaparib", "cell line": "OCI-C5x (clear cell)", "technical replicate": "1", "viability, normalised (%)": "53.8 (active)"}
{"target gene": "PLK2", "PubChem SID": "SID405527691", "rucaparib or vehicle": "Rucaparib", "cell line": "OCI-C5x (clear cell)", "technical replicate": "2", "viability, normalised (%)": "62.1 (active)"}
{"target gene": "PLK2", "PubChem SID": "SID405527691", "rucaparib or vehicle": "Rucaparib", "cell line": "OCI-C5x (clear cell)", "technical replicate": "3", "viability, normalised (%)": "50.5 (active)"}
{"target gene": "PLK2", "PubChem SID": "SID405527691", "rucaparib or vehicle": "Rucaparib", "cell line": "OCI-P5x (serous)", "technical replicate": "1", "viability, normalised (%)": 81.7}
{"target gene": "PLK2", "PubChem SID": "SID405527691", "rucaparib or vehicle": "Rucaparib", "cell line": "OCI-P5x (serous)", "technical replicate": "2", "viability, normalised (%)": 95.3}
{"target gene": "PLK2", "PubChem SID": "SID405527691", "rucaparib or vehicle": "Rucaparib", "cell line": "OCI-P5x (serous)", "technical replicate": "3", "viability, normalised (%)": "78.5 (active)"}
{"target gene": "PLK2", "PubChem SID": "SID405527691", "rucaparib or vehicle": "Vehicle", "cell line": "OCI-C5x (clear cell)", "technical replicate": "1", "viability, normalised (%)": "69.7 (active)"}
{"target gene": "PLK2", "PubChem SID": "SID405527691", "rucaparib or vehicle": "Vehicle", "cell line": "OCI-C5x (clear cell)", "technical replicate": "2", "viability, normalised (%)": "62 (active)"}
{"target gene": "PLK2", "PubChem SID": "SID405527691", "rucaparib or vehicle": "Vehicle", "cell line": "OCI-C5x (clear cell)", "technical replicate": "3", "viability, normalised (%)": "42.4 (active)"}
{"target gene": "PLK2", "PubChem SID": "SID405527691", "rucaparib or vehicle": "Vehicle", "cell line": "OCI-P5x (serous)", "technical replicate": "1", "viability, normalised (%)": 100}
{"target gene": "PLK2", "PubChem SID": "SID405527691", "rucaparib or vehicle": "Vehicle", "cell line": "OCI-P5x (serous)", "technical replicate": "2", "viability, normalised (%)": "78 (active)"}
{"target gene": "PLK2", "PubChem SID": "SID405527691", "rucaparib or vehicle": "Vehicle", "cell line": "OCI-P5x (serous)", "technical replicate": "3", "viability, normalised (%)": "78.5 (active)"}
{"target gene": "INO80E", "PubChem SID": "SID405526905", "rucaparib or vehicle": "Rucaparib", "cell line": "OCI-C5x (clear cell)", "technical replicate": "1", "viability, normalised (%)": "55.1 (active)"}
{"target gene": "INO80E", "PubChem SID": "SID405526905", "rucaparib or vehicle": "Rucaparib", "cell line": "OCI-C5x (clear cell)", "technical replicate": "2", "viability, normalised (%)": "37.9 (active)"}
{"target gene": "INO80E", "PubChem SID": "SID405526905", "rucaparib or vehicle": "Rucaparib", "cell line": "OCI-C5x (clear cell)", "technical replicate": "3", "viability, normalised (%)": "44.8 (active)"}
{"target gene": "INO80E", "PubChem SID": "SID405526905", "rucaparib or vehicle": "Rucaparib", "cell line": "OCI-P5x (serous)", "technical replicate": "1", "viability, normalised (%)": "78.5 (active)"}
{"target gene": "INO80E", "PubChem SID": "SID405526905", "rucaparib or vehicle": "Rucaparib", "cell line": "OCI-P5x (serous)", "technical replicate": "2", "viability, normalised (%)": "78.4 (active)"}
{"target gene": "INO80E", "PubChem SID": "SID405526905", "rucaparib or vehicle": "Rucaparib", "cell line": "OCI-P5x (serous)", "technical replicate": "3", "viability, normalised (%)": "77.4 (active)"}
{"target gene": "INO80E", "PubChem SID": "SID405526905", "rucaparib or vehicle": "Vehicle", "cell line": "OCI-C5x (clear cell)", "technical replicate": "1", "viability, normalised (%)": "72 (active)"}
{"target gene": "INO80E", "PubChem SID": "SID405526905", "rucaparib or vehicle": "Vehicle", "cell line": "OCI-C5x (clear cell)", "technical replicate": "2", "viability, normalised (%)": "75.1 (active)"}
{"target gene": "INO80E", "PubChem SID": "SID405526905", "rucaparib or vehicle": "Vehicle", "cell line": "OCI-C5x (clear cell)", "technical replicate": "3", "viability, normalised (%)": "66.9 (active)"}
{"target gene": "INO80E", "PubChem SID": "SID405526905", "rucaparib or vehicle": "Vehicle", "cell line": "OCI-P5x (serous)", "technical replicate": "1", "viability, normalised (%)": "69.9 (active)"}
{"target gene": "INO80E", "PubChem SID": "SID405526905", "rucaparib or vehicle": "Vehicle", "cell line": "OCI-P5x (serous)", "technical replicate": "2", "viability, normalised (%)": 80.8}
{"target gene": "INO80E", "PubChem SID": "SID405526905", "rucaparib or vehicle": "Vehicle", "cell line": "OCI-P5x (serous)", "technical replicate": "3", "viability, normalised (%)": 92.8}
{"target gene": "MAPKAPK2", "PubChem SID": "SID405528547", "rucaparib or vehicle": "Rucaparib", "cell line": "OCI-C5x (clear cell)", "technical replicate": "1", "viability, normalised (%)": "44.7 (active)"}
{"target gene": "MAPKAPK2", "PubChem SID": "SID405528547", "rucaparib or vehicle": "Rucaparib", "cell line": "OCI-C5x (clear cell)", "technical replicate": "2", "viability, normalised (%)": "58 (active)"}
{"target gene": "MAPKAPK2", "PubChem SID": "SID405528547", "rucaparib or vehicle": "Rucaparib", "cell line": "OCI-C5x (clear cell)", "technical replicate": "3", "viability, normalised (%)": "43.1 (active)"}
{"target gene": "MAPKAPK2", "PubChem SID": "SID405528547", "rucaparib or vehicle": "Rucaparib", "cell line": "OCI-P5x (serous)", "technical replicate": "1", "viability, normalised (%)": "77.4 (active)"}
{"target gene": "MAPKAPK2", "PubChem SID": "SID405528547", "rucaparib or vehicle": "Rucaparib", "cell line": "OCI-P5x (serous)", "technical replicate": "2", "viability, normalised (%)": "60.4 (active)"}
{"target gene": "MAPKAPK2", "PubChem SID": "SID405528547", "rucaparib or vehicle": "Rucaparib", "cell line": "OCI-P5x (serous)", "technical replicate": "3", "viability, normalised (%)": "63.1 (active)"}
{"target gene": "MAPKAPK2", "PubChem SID": "SID405528547", "rucaparib or vehicle": "Vehicle", "cell line": "OCI-C5x (clear cell)", "technical replicate": "1", "viability, normalised (%)": "61 (active)"}
{"target gene": "MAPKAPK2", "PubChem SID": "SID405528547", "rucaparib or vehicle": "Vehicle", "cell line": "OCI-C5x (clear cell)", "technical replicate": "2", "viability, normalised (%)": "47 (active)"}
{"target gene": "MAPKAPK2", "PubChem SID": "SID405528547", "rucaparib or vehicle": "Vehicle", "cell line": "OCI-C5x (clear cell)", "technical replicate": "3", "viability, normalised (%)": "40.2 (active)"}
{"target gene": "MAPKAPK2", "PubChem SID": "SID405528547", "rucaparib or vehicle": "Vehicle", "cell line": "OCI-P5x (serous)", "technical replicate": "1", "viability, normalised (%)": "47.2 (active)"}
{"target gene": "MAPKAPK2", "PubChem SID": "SID405528547", "rucaparib or vehicle": "Vehicle", "cell line": "OCI-P5x (serous)", "technical replicate": "2", "viability, normalised (%)": "72.7 (active)"}
{"target gene": "MAPKAPK2", "PubChem SID": "SID405528547", "rucaparib or vehicle": "Vehicle", "cell line": "OCI-P5x (serous)", "technical replicate": "3", "viability, normalised (%)": "56.2 (active)"}

Reprinted from the listing, 5 entries:
{"target gene": "INO80E", "PubChem SID": "SID405526905", "rucaparib or vehicle": "Rucaparib", "cell line": "OCI-C5x (clear cell)", "technical replicate": "2", "viability, normalised (%)": "37.9 (active)"}
{"target gene": "INO80E", "PubChem SID": "SID405526905", "rucaparib or vehicle": "Rucaparib", "cell line": "OCI-C5x (clear cell)", "technical replicate": "3", "viability, normalised (%)": "44.8 (active)"}
{"target gene": "INO80E", "PubChem SID": "SID405526905", "rucaparib or vehicle": "Rucaparib", "cell line": "OCI-P5x (serous)", "technical replicate": "1", "viability, normalised (%)": "78.5 (active)"}
{"target gene": "INO80E", "PubChem SID": "SID405526905", "rucaparib or vehicle": "Rucaparib", "cell line": "OCI-P5x (serous)", "technical replicate": "2", "viability, normalised (%)": "78.4 (active)"}
{"target gene": "INO80E", "PubChem SID": "SID405526905", "rucaparib or vehicle": "Rucaparib", "cell line": "OCI-P5x (serous)", "technical replicate": "3", "viability, normalised (%)": "77.4 (active)"}
